Reference: US8501992B2, “Hydroxyphenyl sulfonamides as antiapoptotic bcl inhibitors” (Bristol-Myers Squibb Company, priority 2008, dated 2013)
Some entries share one result that the patent states for a list of compounds.

target: T1, Bcl-b (Homo sapiens, UniProt Q9HD36); test: Bclb/Bim fluorescence polarization assay (FPA); format: binding; conditions: BIM BH3 peptide 5 nM, Bcl-b 40 nM, Ki calculated from FPA data
T1 construct: without their C-terminal transmembrane domain; GST; made in house
T1 sequence (Q9HD36 1-182 limits assumed): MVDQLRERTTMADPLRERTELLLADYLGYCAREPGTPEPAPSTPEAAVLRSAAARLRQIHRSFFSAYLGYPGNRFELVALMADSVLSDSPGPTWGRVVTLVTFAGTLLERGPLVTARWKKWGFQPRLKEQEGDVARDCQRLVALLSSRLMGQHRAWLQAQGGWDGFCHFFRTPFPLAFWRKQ

Ki, ≤ 10 µM:
CC(C)CN(Cc1cccc(CN(Cc2ccc(-c3ccc(F)cc3)cc2)S(=O)(=O)c2cc(Cl)cc(Cl)c2O)c1)C(=O)c1ccc(N2CCCCC2)nc1 [Example 185, N-(3-((3,5-Dichloro-N-((4′-fluorobiphenyl-4-yl)methyl)-2-hydroxyphenylsulfonamido)methyl)benzyl)-N-isobutyl-6-(piperidin-1-yl)nicotinamide]
CC(C)CN(Cc1cccc(CN(Cc2ccc(-c3ccc(F)cc3)cc2)S(=O)(=O)c2cc(Cl)cc(Cl)c2O)c1)C(=O)c1cccc2[nH]ccc12 [Example 186, N-(3-((3,5-Dichloro-N-((4′-fiuorobiphenyl-4-yl)methyl)-2-hydroxyphenylsulfonamido)rnethyl)-benzyl)-N-isobutyl-1H-indole-4-carboxamide]
CC(C)CN(Cc1cccc(CN(Cc2ccc(-c3ccc(F)cc3)cc2)S(=O)(=O)c2cc(Cl)cc(Cl)c2O)c1)C(=O)c1ccc(C2CCCCC2)cc1 [Example 187, 4-Cyclohexyl-N-(3-((3,5-dichloro-N-((4′-fluorobiphenyl-4-yl)methyl)-2-hydroxyphenylsulfonamido)methyl)-benzyl)-N-isobutylbenzamide]
CC(C)CN(Cc1cccc(CN(Cc2ccc(-c3ccc(F)cc3)cc2)S(=O)(=O)c2cc(Cl)cc(Cl)c2O)c1)C(=O)c1ccc([N+](=O)[O-])c(Cl)c1 [Example 188, 3-Chloro-N-(3-((3,5-dichloro-N-((4′-fluorobiphenyl-4-yl)methyl)-hydroxyphenylsulfonamido)methyl)-benzyl)-N-isobutyl-4-nitrobenzamide]
CC(C)CN(Cc1cccc(CN(Cc2ccc(-c3ccc(F)cc3)cc2)S(=O)(=O)c2cc(Cl)cc(Cl)c2O)c1)C(=O)c1ccc2ccccc2c1 [Example 189, N-(3-((3,5-Dichloro-N-((4′-fluorobiphenyl-4-yl)methyl)-2-hydroxyphenylsulfonamido)methyl)-benzyl)-N-isobutyl-2-naphthamide]
CC(C)CN(Cc1cccc(CN(Cc2ccc(-c3ccc(F)cc3)cc2)S(=O)(=O)c2cc(Cl)cc(Cl)c2O)c1)C(=O)c1ccc2[nH]c(=O)c(=O)[nH]c2c1 [Example 190, N-(3-((3,5-Dichloro-N-((4′-fluorobiphenyl-4-yl)methyl)-2-hydroxyphenylsulfonamido)methyl)-benzyl)-N-isobutyl-2,3-dioxo-1,2,3,4-tetrahydroquinoxaline-6-carboxamide]
CC(C)CN(Cc1cccc(CN(Cc2ccc(-c3ccc(F)cc3)cc2)S(=O)(=O)c2cc(Cl)cc(Cl)c2O)c1)C(=O)c1nc2ccccc2s1 [Example 191, N-(3-((3,5-Dichloro-N-((4′-fluorobiphenyl-4-yl)methyl)-2-hydroxyphenylsulfonamido)methyl)-benzyl)-N-isobutylbenzo[d]thiazole-2-carboxamide]
CC(C)CN(Cc1cccc(CN(Cc2ccc(-c3ccc(F)cc3)cc2)S(=O)(=O)c2cc(Cl)cc(Cl)c2O)c1)C(=O)c1ccc(-c2ccncc2)cc1 [Example 192, N-(3-((3,5-Dichloro-N-((4′-fluorobiphenyl-4-yl)methyl)-2-hydroxyphenylsulfonamido)methyl)-benzyl)-N-isobutyl-4-(pyridin-4-yl)benzamide]
CC(C)CN(Cc1cccc(CN(Cc2ccc(-c3ccc(F)cc3)cc2)S(=O)(=O)c2cc(Cl)cc(Cl)c2O)c1)C(=O)c1ccc(-c2ccccc2)cc1 [Example 193, N-(3-((3,5-Dichloro-N-((4′-fluorobiphenyl-4-yl)methyl)-2-hydroxyphenylsulfonamido)methyl)-benzyl)-N-isobutylbiphenyl-4-carboxamide]
CC(C)CN(Cc1cccc(CN(Cc2ccc(-c3ccc(F)cc3)cc2)S(=O)(=O)c2cc(Cl)cc(Cl)c2O)c1)C(=O)Nc1cccc(Cl)c1Cl [Example 194, 3,5-Dichloro-N-(3-((3-(2,3-dichlorophenyl)-1-isobutylureido)methyl)benzyl)-N-((4′-fluorobiphenyl-4-yl)methyl)-2-hydroxybenzenesulfonamide]
CC(C)CN(Cc1cccc(CN(Cc2ccc(-c3ccc(F)cc3)cc2)S(=O)(=O)c2cc(Cl)cc(Cl)c2O)c1)C(=O)Nc1ccccc1-c1ccccc1 [Example 195, N-(3-((3-(Biphenyl-2-yl)-1-isobutylureido)methyl)benzyl)-3,5-dichloro-N-((4′-fluorobiphenyl-4-yl)methyl)-2-hydroxybenzenesulfonamide]
COc1cccc(NC(=O)N(Cc2cccc(CN(Cc3ccc(-c4ccc(F)cc4)cc3)S(=O)(=O)c3cc(Cl)cc(Cl)c3O)c2)CC(C)C)c1 [Example 196, 3,5-Dichloro-N-((4′-fluorobiphenyl-4-yl)methyl)-2-hydroxy-N-(3-((1-isobutyl-3-(3-methoxyphenyl)ureido)methyl)-benzyl)benzenesulfonamide]
CC(C)CN(Cc1cccc(CN(Cc2ccc(-c3ccc(F)cc3)cc2)S(=O)(=O)c2cc(Cl)cc(Cl)c2O)c1)C(=O)Nc1ccc(OCc2ccccc2)cc1 [Example 197, N-(3-((3-(4-(Benzyloxy)phenyl)-1-isobutylureido)methyl)benzyl)-3,5-dichloro-((4′-fluorobiphenyl-4-yl)methyl)-2-hydroxybenzenesulfonamide]
Cc1cccc(C(C)(C)C)c1NC(=O)N(Cc1cccc(CN(Cc2ccc(-c3ccc(F)cc3)cc2)S(=O)(=O)c2cc(Cl)cc(Cl)c2O)c1)CC(C)C [Example 198, N-(3-((3-(2-tert-Butyl-6-methylphenyl)-1-isobutylureido)methyl)benzyl)-3,5-dichloro-N-((4′-fluorobiphenyl-4-yl)methyl)-2-hydroxybenzenesulfonamide]
CC(C)CN(Cc1cccc(CN(Cc2ccc(-c3ccc(F)cc3)cc2)S(=O)(=O)c2cc(Cl)cc(Cl)c2O)c1)C(=O)Nc1c(C(C)C)cccc1C(C)C [Example 199, 3,5-Dichloro-N-(3-((3-(2,6-diisopropylphenyl)-1-isobutylureido)methyl)benzyl)-N-((4′-fluorobiphenyl-4-yl)methyl)-2-hydroxybenzenesulfonamide]
CC(C)CN(Cc1cccc(CN(Cc2ccc(-c3ccc(F)cc3)cc2)S(=O)(=O)c2cc(Cl)cc(Cl)c2O)c1)C(=O)Nc1ccccc1C(C)C [Example 200, 3,5-Dichloro-N-((4′-fluorobiphenyl-4-yl)methyl)-2-hydroxy-N-(3-((1-isobutyl-3-(2-isopropylphenyl)ureido)methyl)-benzyl)benzenesulfonamide]
CC(C)CN(Cc1cccc(CN(Cc2ccc(-c3ccc(F)cc3)cc2)S(=O)(=O)c2cc(Cl)cc(Cl)c2O)c1)C(=O)Nc1cc(F)ccc1F [Example 201, 3,5-Dichloro-N-(3-((3-(2,5-difluorophenyl)-1-isobutylureido)methyl)benzyl)-N-((4′-fluorobiphenyl-4-yl)methyl)-2-hydroxybenzenesulfonamide]
CC(C)CN(Cc1cccc(CN(Cc2ccc(-c3ccc(F)cc3)cc2)S(=O)(=O)c2cc(Cl)cc(Cl)c2O)c1)C(=O)N(C)C [Example 202]
CC(C)CN(Cc1cccc(CN(Cc2ccc(-c3ccc(F)cc3)cc2)S(=O)(=O)c2cc(Cl)cc(Cl)c2O)c1)C(=O)N(C)c1ccccc1-c1ccccc1 [Example 203, N-(3-((3-(Biphenyl-2-yl)-1-isobutyl-3-methylureido)methyl)benzyl)-3,5-dichloro-N-((4′-fluorobiphenyl-4-yl)methyl)-2-hydroxybenzenesulfonamide]
